Results: PubChem BioAssay AID328 (DTP/NCI, 2004)
The list shows only some results of the screen, not a fair sample: its compounds were picked by chemical class. Not every dose and run of a compound is shown. T/C gives the treated animals as a percentage of the vehicle group. Some entries give survivors of the animals treated and no T/C: the source holds a T/C of zero for them, seemingly a mark for toxic or unscored doses. Some doses without a T/C left all or most animals alive at the check, yet need not have been tolerated: survival well below the control is almost never listed, so the zero probably covers shortened survival too. Survivors were counted at the toxicity check, usually on the fifth day, unless a day is given; later deaths do not show. Schedule codes are those of the source, read here as Q, the interval in days (D) or hours (H), X, the number of doses. For survival time, the PubChem record calls one and a half times the control and up active, and a quarter to a half above the control has no call in these data; cut-offs in other NCI protocols can differ. Some T/C values are followed by the survivors on the day toxicity was checked, most often the fifth; without a count or a note in brackets, all were alive then. Some entries hold several experiments; the results are listed from low to high. Some entries show no survivor count and are marked so; the dose need not have been tolerated.

Tested on: BDF1 mice, P388 leukemia ip, median survival T/C
Experiment: NCI In Vivo Anticancer Drug Screen. Data for tumor model P388 Leukemia (intraperitoneal) in B6D2F1 (BDF1) mice
Conditions: T/C endpoint: median survival time, higher T/C = longer survival
In short: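 Vehicle-dosed animals serve as the reference; survival of compound-dosed, tumour-implanted mice is divided by it.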

[1] = dose: 100.0 mg/kg/injection, schedule: Q01DX001 (ip), vehicle: saline
[2] = dose: 200.0 mg/kg/injection, schedule: Q01DX001 (ip), vehicle: saline
[3] = dose: 400.0 mg/kg/injection, schedule: Q01DX001 (ip), vehicle: saline
[4] = dose: 25.0 mg/kg/injection, schedule: Q01DX009 (ip), vehicle: saline
[5] = dose: 50.0 mg/kg/injection, schedule: Q01DX009 (ip), vehicle: saline
[6] = dose: 100.0 mg/kg/injection, schedule: Q01DX009 (ip), vehicle: Klucel (hydroxypropylcellulose) (HPC)
[7] = dose: 100.0 mg/kg/injection, schedule: Q04DX003 (ip), vehicle: Klucel (hydroxypropylcellulose) (HPC)
[8] = dose: 200.0 mg/kg/injection, schedule: Q01DX009 (ip), vehicle: Klucel (hydroxypropylcellulose) (HPC)
[9] = dose: 200.0 mg/kg/injection, schedule: Q04DX003 (ip), vehicle: Klucel (hydroxypropylcellulose) (HPC)
[10] = dose: 400.0 mg/kg/injection, schedule: Q04DX003 (ip), vehicle: Klucel (hydroxypropylcellulose) (HPC)
[11] = dose: 25.0 mg/kg/injection, schedule: Q01DX009 (ip), vehicle: saline with Tween-80
[12] = dose: 50.0 mg/kg/injection, schedule: Q01DX009 (ip), vehicle: saline with Tween-80
[13] = dose: 100.0 mg/kg/injection, schedule: Q01DX009 (ip), vehicle: saline with Tween-80
[14] = dose: 200.0 mg/kg/injection, schedule: Q01DX009 (ip), vehicle: saline with Tween-80
[15] = dose: 400.0 mg/kg/injection, schedule: Q04DX003 (ip), vehicle: saline
[16] = dose: 100.0 mg/kg/injection, schedule: Q01DX009 (ip), vehicle: saline
[17] = dose: 200.0 mg/kg/injection, schedule: Q04DX003 (ip), vehicle: saline

CCC1COP(N(C)C)OC1 (stereo not given)
T/C [1]: 120 % of control | T/C [2]: 100 % of control | T/C [3]: 101 % of control

NP1(=O)C=CNC(=O)N1 (stereo not given)
T/C (dose: 50.0 mg/kg/injection, schedule: Q01DX001 (ip), vehicle: saline): 100 % of control | T/C [1]: 101 % of control | T/C [2]: 106 % of control | T/C [3]: 93 % of control

O=C(Nc1ncc([N+](=O)[O-])s1)c1cc([N+](=O)[O-])cc([N+](=O)[O-])c1
T/C (dose: 6.25 mg/kg/injection, schedule: Q01DX009 (ip), vehicle: saline): 92 % of control | T/C (dose: 12.5 mg/kg/injection, schedule: Q01DX009 (ip), vehicle: saline): 99 % of control | T/C [4]: 100 % of control | T/C [5]: 103 % of control

Nc1c([N+](=O)[O-])cc([N+](=O)[O-])cc1[N+](=O)[O-]
T/C [6]: 90 % of control [survivor count not shown] | T/C [7]: 104 % of control [survivor count not shown] | T/C [8]: 100 % of control [survivor count not shown] | T/C [9]: 109 % of control [survivor count not shown] | T/C (dose: 400.0 mg/kg/injection, schedule: Q01DX009 (ip), vehicle: Klucel (hydroxypropylcellulose) (HPC)): 110 % of control [survivor count not shown] | T/C [10]: 100 % of control [survivor count not shown]

Cc1ccc(S(=O)(=O)CN(CCCl)CCCl)cc1
T/C [11]: 111 % of control | T/C [12]: 155 and 170 % of control | T/C [13]: 193 and 207 % of control | T/C [14]: 108 % of control | survivor count [14]: 5 of 6

CCN(CC)P1OCC(C)O1 (stereo not given)
T/C [12]: 109 % of control | T/C [13]: 100 % of control | T/C [14]: 91 % of control

CC[C@@H](C)[C@@H]1NC(=O)/C(=C(\C)O)C1=O.c1ccc(CNCCNCc2ccccc2)cc1
T/C (dose: 10.0 mg/kg/injection, schedule: Q01DX010 (ip), vehicle: saline): 90 and 119 % of control | T/C (dose: 14.0 mg/kg/injection, schedule: Q01DX010 (ip), vehicle: saline): 100 and 109 % of control | T/C (dose: 20.0 mg/kg/injection, schedule: Q01DX010 (ip), vehicle: saline): 100 and 104 % of control | T/C (dose: 30.0 mg/kg/injection, schedule: Q01DX010 (ip), vehicle: saline): 90 and 95 % of control

O=[N+]([O-])c1cc([N+](=O)[O-])c(NN2CCCCC2)c([N+](=O)[O-])c1
T/C [7]: 100 % of control [survivor count not shown] | T/C [9]: 100 % of control [survivor count not shown] | T/C [10]: 104 % of control [survivor count not shown]

O=P(NCCCO)(OCCCl)N(CCCl)CCCl (stereo not given)
T/C (dose: 100.0 mg/kg/injection, schedule: Q04DX003 (ip), vehicle: saline sonified): 100 % of control [5 of 6 alive] | T/C (dose: 200.0 mg/kg/injection, schedule: Q04DX003 (ip), vehicle: saline sonified): 100 % of control | T/C (dose: 264.0 mg/kg/injection, schedule: Q04DX003 (ip), vehicle: saline): 109 % of control | T/C (dose: 400.0 mg/kg/injection, schedule: Q04DX003 (ip), vehicle: saline sonified): 118 % of control | T/C [15]: 140 % of control

CCN(CC)CCOC(=O)C(O)(c1ccccc1)c1cc(C)cc(C)c1C (stereo not given)
T/C (dose: 6.25 mg/kg/injection, schedule: Q04DX003 (ip), vehicle: Klucel (hydroxypropylcellulose) (HPC)): 104 % of control | T/C (dose: 12.5 mg/kg/injection, schedule: Q04DX003 (ip), vehicle: Klucel (hydroxypropylcellulose) (HPC)): 95 % of control | T/C (dose: 25.0 mg/kg/injection, schedule: Q04DX003 (ip), vehicle: Klucel (hydroxypropylcellulose) (HPC)): 87 % of control

O=C(O)COc1ccc(N(CCCl)CCCl)cc1
T/C (dose: 8.0 mg/kg/injection, schedule: Q01DX009 (ip), vehicle: saline with Tween-80): 219 % of control | T/C (dose: 8.2 mg/kg/injection, schedule: Q01DX009 (ip), vehicle: saline with Tween-80): 150 % of control | T/C (dose: 12.0 mg/kg/injection, schedule: Q01DX009 (ip), vehicle: saline with Tween-80): 230 % of control | survivor count (dose: 12.5 mg/kg/injection, schedule: Q01DX009 (ip), vehicle: saline with Tween-80): 6 of 6 | survivor count (dose: 18.0 mg/kg/injection, schedule: Q01DX009 (ip), vehicle: saline with Tween-80): 6 of 6 | survivor count (dose: 18.75 mg/kg/injection, schedule: Q01DX009 (ip), vehicle: saline with Tween-80): 6 of 6

CN1CC1C(C)(C)C.O=[N+]([O-])c1cc([N+](=O)[O-])c(O)c([N+](=O)[O-])c1
T/C (dose: 50.0 mg/kg/injection, schedule: Q01DX009 (ip), vehicle: Klucel (hydroxypropylcellulose) (HPC)): 95 % of control [survivor count not shown] | T/C [6]: 100 % of control [survivor count not shown] | T/C [7]: 100 % of control [survivor count not shown] | T/C [8]: 105 % of control [survivor count not shown] | T/C [9]: 105 % of control [survivor count not shown]

CCOC(=O)C(CCSC)NC(=O)OCCNCCCl (stereo not given)
T/C (dose: 20.0 mg/kg/injection, schedule: Q04DX003 (ip), vehicle: saline): 127 % of control | T/C [11]: 120 % of control | T/C [4]: 185 % of control | T/C (dose: 25.0 mg/kg/injection, schedule: Q04DX003 (ip), vehicle: saline): 127 % of control | T/C (dose: 30.0 mg/kg/injection, schedule: Q04DX003 (ip), vehicle: saline): 140 % of control | T/C (dose: 33.0 mg/kg/injection, schedule: Q01DX009 (ip), vehicle: saline): 142 % of control | T/C (dose: 45.0 mg/kg/injection, schedule: Q04DX003 (ip), vehicle: saline): 150 % of control | T/C [12]: 129 % of control | T/C [5]: 142 and 196 % of control | T/C (dose: 50.0 mg/kg/injection, schedule: Q04DX003 (ip), vehicle: saline): 136 % of control | T/C (dose: 66.0 mg/kg/injection, schedule: Q01DX009 (ip), vehicle: saline with Tween-80): 161 % of control | T/C (dose: 66.0 mg/kg/injection, schedule: Q01DX009 (ip), vehicle: saline): 150 % of control | T/C (dose: 66.0 mg/kg/injection, schedule: Q04DX003 (ip), vehicle: saline): 150 % of control | T/C (dose: 75.0 mg/kg/injection, schedule: Q01DX009 (ip), vehicle: saline): 92 % of control | T/C [13]: 119 and 141 % of control | T/C [16]: 154 % of control | survivor count [16]: 3 of 6 | T/C (dose: 100.0 mg/kg/injection, schedule: Q04DX003 (ip), vehicle: saline): 154, 159 [5 of 6 alive], 183 % of control | survivor count (dose: 150.0 mg/kg/injection, schedule: Q01DX009 (ip), vehicle: saline with Tween-80): 2 of 6 | T/C (dose: 150.0 mg/kg/injection, schedule: Q01DX009 (ip), vehicle: saline): 172 % of control | T/C (dose: 150.0 mg/kg/injection, schedule: Q04DX003 (ip), vehicle: saline): 122 % of control | T/C [17]: 200 % of control | survivor count [17]: 3 of 6 | survivor count [15]: 0 of 6
